The source of these data is PMC12552473.

Protein sequences, listed by entry. Tags and fused reporters are not part of them.
UniProt Q16665: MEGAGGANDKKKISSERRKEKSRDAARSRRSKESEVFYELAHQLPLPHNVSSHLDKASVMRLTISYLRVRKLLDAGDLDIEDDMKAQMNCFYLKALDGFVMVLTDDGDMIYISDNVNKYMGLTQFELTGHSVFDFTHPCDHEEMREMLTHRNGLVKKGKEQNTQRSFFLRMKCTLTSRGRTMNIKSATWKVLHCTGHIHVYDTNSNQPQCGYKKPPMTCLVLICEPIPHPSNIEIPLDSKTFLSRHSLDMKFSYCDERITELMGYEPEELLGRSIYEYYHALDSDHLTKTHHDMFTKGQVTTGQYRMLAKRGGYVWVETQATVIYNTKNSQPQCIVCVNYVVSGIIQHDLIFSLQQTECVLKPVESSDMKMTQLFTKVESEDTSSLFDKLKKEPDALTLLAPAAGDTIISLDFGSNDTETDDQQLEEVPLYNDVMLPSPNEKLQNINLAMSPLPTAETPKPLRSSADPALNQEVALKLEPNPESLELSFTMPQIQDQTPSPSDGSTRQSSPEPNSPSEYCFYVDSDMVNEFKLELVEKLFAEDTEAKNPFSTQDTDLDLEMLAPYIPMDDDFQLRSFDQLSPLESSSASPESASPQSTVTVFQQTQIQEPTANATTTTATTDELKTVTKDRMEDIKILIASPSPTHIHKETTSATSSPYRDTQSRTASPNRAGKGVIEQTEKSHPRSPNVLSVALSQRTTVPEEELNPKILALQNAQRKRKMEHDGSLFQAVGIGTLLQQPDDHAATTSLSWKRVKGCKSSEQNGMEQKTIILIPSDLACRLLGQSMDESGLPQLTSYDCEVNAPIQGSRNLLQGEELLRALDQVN

The experiment concerns the target T1, Flag-tagged UHRF1, stably overexpressed in SKOV3 cells (UniProt Q96T88).
T1 sequence: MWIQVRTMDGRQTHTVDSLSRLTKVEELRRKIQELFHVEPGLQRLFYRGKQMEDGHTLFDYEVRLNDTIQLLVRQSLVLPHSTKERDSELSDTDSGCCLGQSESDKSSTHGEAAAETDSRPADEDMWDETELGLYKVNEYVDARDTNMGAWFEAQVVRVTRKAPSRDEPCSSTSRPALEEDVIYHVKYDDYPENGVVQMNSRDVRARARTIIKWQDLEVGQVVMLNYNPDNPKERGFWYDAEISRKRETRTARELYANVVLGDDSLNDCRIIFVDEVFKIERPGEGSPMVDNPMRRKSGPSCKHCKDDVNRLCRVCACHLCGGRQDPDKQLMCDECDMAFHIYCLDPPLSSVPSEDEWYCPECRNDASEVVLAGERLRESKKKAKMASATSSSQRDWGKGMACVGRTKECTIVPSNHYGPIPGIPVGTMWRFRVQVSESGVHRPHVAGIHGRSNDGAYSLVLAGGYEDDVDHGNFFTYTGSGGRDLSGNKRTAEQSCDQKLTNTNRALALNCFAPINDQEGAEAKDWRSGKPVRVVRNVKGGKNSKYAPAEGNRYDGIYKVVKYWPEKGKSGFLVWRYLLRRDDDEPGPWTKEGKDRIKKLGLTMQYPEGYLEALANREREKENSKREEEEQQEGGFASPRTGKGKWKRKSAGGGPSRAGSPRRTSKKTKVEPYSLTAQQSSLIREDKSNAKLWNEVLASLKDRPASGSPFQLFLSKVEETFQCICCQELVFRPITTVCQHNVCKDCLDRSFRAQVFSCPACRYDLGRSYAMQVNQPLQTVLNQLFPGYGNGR
The experiment can be described thus: affinity purification with mass spectrometry; pull-down with a Flag antibody from UHRF1-overexpressing SKOV3 cells under hypoxic conditions, then mass spectrometry.

Results are given in words; binding and its absence hold for the method and conditions named. In cells and extracts the contact can be indirect. Here binding means that the protein was enriched with, or labelled near, the bait; the list need not be complete. Tags and fused reporters may be left off the sequences shown.

For the substance “Hypoxia-inducible factor 1 α (HIF-1α), endogenous in SKOV3 cells (from UniProt Q16665 1-826)”, the binding result is “binds”.
